According to PubChem BioAssay AID588590 (National Center for Advancing Translational Sciences (NCATS), 2011):
Out of some 390,000 compounds screened, about 4,000 (1%) were called active. Inconclusive results, whose numbers are uncertain, are shown with a selection of clear calls. The call rests on the fitted dose curve; in most records, active means well fitted inhibition curve with a large enough effect; inconclusive means small, poorly fitted or top-dose-only effect, or another doubt; inactive means no such curve, though single readings can be large or run the other way. Potencies beside an inconclusive call are fits to weak or partial responses and may not hold up.

Chains of the proteins cited; added tags and fusions are not shown. Lines headed by an entry give the natural chain unless they say otherwise; changes in a name come on top.
UniProt Q9UNA4: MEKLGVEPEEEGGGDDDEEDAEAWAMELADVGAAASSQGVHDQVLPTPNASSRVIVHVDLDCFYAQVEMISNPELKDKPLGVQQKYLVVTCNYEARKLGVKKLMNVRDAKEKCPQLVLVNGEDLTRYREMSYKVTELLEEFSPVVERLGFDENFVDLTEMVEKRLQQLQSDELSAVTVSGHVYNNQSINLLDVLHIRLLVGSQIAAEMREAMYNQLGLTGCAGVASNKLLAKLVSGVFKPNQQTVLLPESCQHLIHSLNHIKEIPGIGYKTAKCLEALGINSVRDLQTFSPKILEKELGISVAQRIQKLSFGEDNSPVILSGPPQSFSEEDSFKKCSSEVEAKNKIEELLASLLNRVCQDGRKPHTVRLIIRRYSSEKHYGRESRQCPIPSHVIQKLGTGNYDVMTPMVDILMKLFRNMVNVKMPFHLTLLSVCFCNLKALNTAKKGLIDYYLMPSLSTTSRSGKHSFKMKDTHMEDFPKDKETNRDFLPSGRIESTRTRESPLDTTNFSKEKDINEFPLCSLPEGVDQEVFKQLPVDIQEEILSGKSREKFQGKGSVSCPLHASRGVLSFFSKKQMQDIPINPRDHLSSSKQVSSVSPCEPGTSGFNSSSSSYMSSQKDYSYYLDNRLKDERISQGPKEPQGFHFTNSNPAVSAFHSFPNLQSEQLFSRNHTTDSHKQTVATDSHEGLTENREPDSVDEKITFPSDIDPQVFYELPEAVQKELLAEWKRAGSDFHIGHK

Molecular target: DNA polymerase iota (Homo sapiens) (UniProt Q9UNA4)
Test: qHTS for Inhibitors of Polymerase Iota
Conditions: Pol iota fluorescent replication assay, 10 min; series mostly up to 115 µM
In short: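 Fluorescent replication assay read twice, at 0 min and 10 min after adding 50 nM (final) substrate. Enzyme (10 nM) and compounds were first incubated 15 min at room temperature; enzyme-free buffer wells were negative controls.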
Potency means the concentration at half of the fitted maximal effect.

Row | SMILES | Potency
1 | COc1ccc(C2/C(=C(/O)c3ccc(C)cc3)C(=O)C(=O)N2CCCN2CCOCC2)cc1 (stereo not given) | inconclusive: 39.8 µM [inhibitor, single point]
2 | CCOC(=O)CCNC(=O)Nc1ccc2nc(C)n(Cc3ccccc3Cl)c(=O)c2c1 | inconclusive: 112 µM [inhibitor, partial curve, poor fit]
3 | COc1ccc(OCCCCn2c(C3CC(=O)N(c4cccc(Cl)c4)C3)nc3ccccc32)cc1 (stereo not given) | inactive
4 | COc1ccc(NC(=O)CSc2nc3ccccc3n2CC(=O)N(C)c2ccc(F)cc2)cc1 | inconclusive: 44.7 µM [inhibitor, single point]
5 | NC(=O)c1ccsc1NC(=O)COC(=O)CNC(=O)c1ccc(Cl)cc1 | inactive
6 | C[C@H](CO)N1C[C@H](C)[C@@H](CN(C)S(=O)(=O)c2ccccc2)Oc2ccc(NC(=O)Nc3ccc4c(c3)OCO4)cc2C1=O | inconclusive: 100 µM [inhibitor, single point]
7 | CC(C)CCNC(=O)c1ccc2c(c1)NC(=O)C(CS(=O)(=O)Cc1cccc(Br)c1)N2 (stereo not given) | inconclusive: 79.4 µM [inhibitor, single point]
8 | O=C1C(=O)N(CCS(=O)(=O)c2ccccc2)c2ccc(Cl)cc21 | inconclusive: 25.1 µM [inhibitor, full curve]
9 | O=C(CSc1nnc(NC(=O)c2ccco2)s1)Nc1ccccc1Cl | inactive
10 | CCN(C[C@H]1N[C@@](C)(C(=O)OC)[C@H]2C(=O)N(C)C(=O)[C@@H]12)S(=O)(=O)c1ccc(OC)cc1 | inconclusive: 10 µM [inhibitor, full curve]
11 | COC(=O)c1cc(NC(=O)c2ccc(Cn3cc(Cl)cn3)o2)cc(C(=O)OC)c1 | inconclusive: 31.6 µM [inhibitor, partial curve, poor fit]
12 | CCc1ccc(NC(=O)CN2C(=O)C3(SCC(=O)N3c3ccccc3)c3ccccc32)cc1 (stereo not given) | inconclusive: 89.1 µM [inhibitor, single point]
13 | NC(=O)c1c(NC(=O)c2ccccc2)sc2c1CCC2 | inconclusive: 56.2 µM [inhibitor, partial curve, poor fit]
14 | CCN1C(=O)[C@H]2[C@H]3CN=C(SCc4ccc(C)cc4)N3[C@@](Cc3ccccc3)(C(=O)OC)[C@H]2C1=O | inconclusive: 25.1 µM [inhibitor, single point]
15 | Cc1ccc(Cl)cc1NC(=O)CSC1=Nc2ccccc2C2=NC(Cc3ccccc3)C(=O)N12 (stereo not given) | inactive
16 | O=C(NCCCO)c1cc2c([nH]c3ccccc32)c(-c2ccc(F)cc2)n1 | inconclusive: 79.4 µM [inhibitor, single point]
17 | Cc1ccc(-n2nc3c(c2NC(=O)/C=C\c2ccc4c(c2)OCO4)CSC3)cc1 | inconclusive: 50.1 µM [inhibitor, partial curve, poor fit]
18 | COc1ccc(-c2csc(NC(=O)c3cc(=O)c4ccccc4o3)n2)cc1OC | inconclusive: 63.1 µM [inhibitor, single point]
19 | O=C(O)CN1C(=O)/C(=C\c2cccc(OCc3ccc(Cl)cc3)c2)SC1=S | inconclusive: 31.6 µM [inhibitor, single point]
20 | O=C(OCC(=O)C12CC3CC(CC(C3)C1)C2)c1ccc(O)cc1O | inconclusive: 44.7 µM [inhibitor, partial curve, poor fit]

Row | SMILES | Potency
21 | COc1ccc(-n2nnnc2SCC(=O)c2ccc(O)c(O)c2)cc1 | inconclusive: 12.6 µM [inhibitor, full curve, poor fit]
22 | COc1ccc(-c2csc(NC(=O)CSc3nnnn3C)n2)c(OC)c1 | inconclusive: 89.1 µM [inhibitor, single point]
23 | N#Cc1c(N)oc(-c2ccco2)c1-c1ccco1 | inconclusive: 28.2 µM [inhibitor, single point]
24 | CCn1cc(C(=O)N2CCN(c3cccc(Cl)c3)CC2)c(=O)c2cc(S(=O)(=O)N3CCCCC3)ccc21 | inconclusive: 3.98 µM [inhibitor, partial curve, poor fit]
25 | O=c1[nH]cnc(O)c1C(c1ccc(Br)cc1)c1c(O)nc[nH]c1=O | inconclusive: 22.4 µM [inhibitor, partial curve, poor fit]
26 | CCN1C(=O)N[C@@H](c2ccco2)C(C(=O)OC)=C1C | inconclusive: 10 µM [inhibitor, partial curve, poor fit]
27 | Cc1cc(C)c2cc(CN(Cc3cccnc3)C(=O)c3ccc(F)cc3)c(Cl)nc2c1 | inconclusive: 112 µM [inhibitor, partial curve, poor fit]
28 | CCCCOc1ccc(C(=O)CCN2CCOCC2)cc1 | inconclusive: 10 µM [inhibitor, partial curve]
29 | O=C(O)[C@H](Cc1ccccc1)NC(=O)N1CCOCC1 | inconclusive: 7.94 µM [inhibitor, partial curve, poor fit]
30 | COc1ccc(CN(C(=O)c2ccco2)c2ccccc2)cc1 | inactive
31 | CCn1c(C(=O)N2CCC(C(=O)NCCc3ccc(OC)cc3OC)CC2)cc2sccc21 | inconclusive: 89.1 µM [inhibitor, single point]
32 | CCCCC1(CO)C(=O)N(c2ccccc2)N(c2ccccc2)C1=O | inconclusive: 50.1 µM [inhibitor, single point]
33 | O=C(CN1C(=O)NC2(CCCC2)C1=O)OCc1cc(=O)n2cc(Br)ccc2n1 | inconclusive: 56.2 µM [inhibitor, partial curve, poor fit]
34 | Cc1nc2ccccc2n1CCc1nc2c3ccccc3nc(SCC(=O)NCc3ccco3)n2n1 | inconclusive: 35.5 µM [inhibitor, full curve, poor fit]
35 | N#CCC(=O)N/N=C\c1ccc(OC/C=C/c2ccccc2)cc1 | inconclusive: 79.4 µM [inhibitor, partial curve, poor fit]
36 | Cn1nc([N+](=O)[O-])nc1Oc1ccc(C(C)(C)C)cc1 | inconclusive: 89.1 µM [inhibitor, single point]
37 | Cc1c(C(=O)NCc2ccccc2Br)oc2c1-c1[nH]ncc1CC2 | inactive
38 | CCCC[C@H]1CCCO[C@@](C(=O)NCc2cc(C)n(C)n2)(C(F)(F)F)C1 | inactive
39 | Cc1cc(C)cc(NC2=CC(c3cccc(F)c3)N(c3cc(C)cc(C)c3)C2=O)c1 (stereo not given) | inactive
40 | COC(=O)c1cc(Cl)c(N)cc1OC | inconclusive: 112 µM [inhibitor, single point]

A second format for some results above.

| Row | SMILES | Potency |
| --- | --- | --- |
| 2 | CCOC(=O)CCNC(=O)Nc1ccc2nc(C)n(Cc3ccccc3Cl)c(=O)c2c1 | inconclusive: 112 µM [inhibitor, partial curve, poor fit] |
| 7 | CC(C)CCNC(=O)c1ccc2c(c1)NC(=O)C(CS(=O)(=O)Cc1cccc(Br)c1)N2 (stereo not given) | inconclusive: 79.4 µM [inhibitor, single point] |
| 25 | O=c1[nH]cnc(O)c1C(c1ccc(Br)cc1)c1c(O)nc[nH]c1=O | inconclusive: 22.4 µM [inhibitor, partial curve, poor fit] |
| 40 | COC(=O)c1cc(Cl)c(N)cc1OC | inconclusive: 112 µM [inhibitor, single point] |

Continued.

Row | SMILES | Potency
41 | CCCCOC(=O)c1c(C)oc2ccc(NS(=O)(=O)c3ccc4c5c(cccc35)C(=O)N4)cc12 | inconclusive: 50.1 µM [inhibitor, partial curve, poor fit]
42 | CCN1CCN(c2c(S(=O)(=O)c3ccc(C)c(C)c3)cnc3cc(OC)c(OC)cc23)CC1 | inactive
43 | CC(=O)C1=NOC2C(=O)N(c3ccc(Cl)cc3)C(=O)C12 (stereo not given) | inconclusive: 35.5 µM [inhibitor, single point]
44 | COc1ccc(NC(=O)CN(C)C(=O)Cc2ccc(S(=O)(=O)N3CCOCC3)s2)cc1 | inconclusive: 39.8 µM [inhibitor, partial curve, poor fit]
45 | CCCCCCC[C@@H](C/C=C/CCC(=O)N(C)C/C(=C/Cl)C/C(=C\C(=O)N1CC(OC)=CC1=O)OC)OC | inconclusive: 17.8 µM [inhibitor, partial curve, poor fit]
46 | COc1cccc(CNC(=O)c2nnn(CC(=O)Nc3cccc(C)c3)c2N)c1 | inconclusive: 70.8 µM [inhibitor, partial curve]
47 | Cc1ccc(-c2cc(-c3ccccc3)[nH]c(=S)c2C#N)cc1 | inconclusive: 28.2 µM [inhibitor, partial curve, poor fit]
48 | O=C(Nc1cc(-c2nc3ncccc3o2)ccc1Cl)c1ccc([N+](=O)[O-])o1 | inconclusive: 44.7 µM [inhibitor, partial curve]
49 | O=C(COC(=O)c1nc(Cl)c(Cl)c(Cl)c1Cl)c1ccc[nH]1 | inconclusive: 14.1 µM [inhibitor, full curve]
50 | CCCCSc1ncnc2c1c(-c1ccccc1)cn2-c1cccc(F)c1 | inconclusive: 79.4 µM [inhibitor, partial curve, poor fit]
51 | CCCn1nc([N+](=O)[O-])c(C(C#N)c2nc3ccccc3o2)c(Cl)c1=O (stereo not given) | inconclusive: 11.2 µM [inhibitor, partial curve, poor fit]
52 | O=C(Cc1ccc(S(=O)(=O)N2CCOCC2)s1)Nc1nc2c(s1)CCCC2 | inconclusive: 10 µM [inhibitor, full curve, poor fit]
53 | O=C1CCSC2(C(=O)N(Cc3ccccc3)c3ccccc32)N1c1ccccc1 (stereo not given) | inconclusive: 35.5 µM [inhibitor, partial curve, poor fit]
54 | c1ccc(Nc2nc(-c3ccccc3)nc3ccccc23)cc1 | inactive
55 | COc1cc(-c2cc(-c3ccc(O)cc3)nc(N)c2C#N)ccc1O | inactive
56 | O=C(Nc1ccc(C2=NCCN2)cc1)c1ccc(C(=O)Nc2ccc(C3=NCCN3)cc2)c(Cl)c1 | inconclusive: 10 µM [inhibitor, partial curve, poor fit]
57 | Cc1ccc(OCc2cc(=O)n3c(-c4ccccc4)csc3n2)cc1 | active: 56.2 µM
58 | CC(C)NC(=O)N(C)C[C@@H]1Oc2ccc(NC(=O)CCN3CCOCC3)cc2CC(=O)N([C@@H](C)CO)C[C@@H]1C | inconclusive: 50.1 µM [inhibitor, single point]
59 | Cc1cc(C(C)(C)C)ccc1OC(=O)C1=CC=CN2CCS(=O)(=O)N=C12 | inactive
60 | CC(C)CCNC(=O)Cn1cc(S(=O)(=O)Cc2ccc(F)cc2)c2ccccc21 | inconclusive: 100 µM [inhibitor, partial curve, poor fit]
